Values from PubChem BioAssay AID1671195 (Yale University, 2021)
Shown is one part, drawn at random, of about 22,000 reagents tested. Over the whole deposit, about 1,510 (6.9%) got an active call. 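Active includes knockdowns raising or lowering LDL uptake; positive z-scores mean more uptake, negative mean less.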

Purpose: 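Regulators of LDL receptor activity judged by labelled LDL uptake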 (primary screen)
Cells: human Huh7 hepatoma cells
Reagent: siRNA pool against human genes, 18 nM
Timing: about 2 to 2.5 days of knockdown, then 8 h LDL uptake
Challenge: DiI-labelled LDL at 30 µg/ml for 8 h, in lipoprotein-deficient serum medium
Detection: 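Per-cell DiI-LDL intensity by automated imaging; well means scaled to the plate median and given as a robust z-score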
Reading the numbers: robust z-score: higher = more LDL uptake after knockdown
Hit rule: 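a gene counts as active if at least two replicate z-scores exceed ±2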

| Gene | robust z-score, replicate 1 | robust z-score, replicate 2 | robust z-score, replicate 3 | outcome |
| --- | --- | --- | --- | --- |
| KRTAP10-11 | 1.1 | 0.11 | 0.435 | inactive |
| LOC440753 (retired record) | 0.24 | 0.0894 | 0.481 | inactive |
| ACTL10 | 0.812 | 0.641 | 0.762 | inactive |
| OTUD5 | -0.196 | 0.977 | -0.661 | inactive |
| CBX7 | 2.79 | 5.15 | 3.43 | active |
| PLCH1 | 0.452 | -0.0438 | -0.503 | inactive |
| WBP2 | -1.67 | -0.468 | -1.37 | inactive |
| PAX6 | 1.55 | 0.656 | 1.85 | inactive |
| DUSP12 | 0.653 | 0.728 | 0.434 | inactive |
| MAP7D2 | -0.892 | -0.544 | -0.619 | inactive |
| CAMK2N1 | 0.249 | 0.35 | 0.757 | inactive |
| RNFT2 | 4.56 | 2.7 | 3.72 | active |
| STOM | 1.23 | 2.32 | 1.55 | inactive |
| ACTR8 | -0.325 | -0.524 | 0.0479 | inactive |
| RPL23AP76 | -0.839 | -1.48 | -1.53 | inactive |
| ATXN7 | 1.66 | 0.484 | -0.0251 | inactive |
| MNT | -1.4 | -1.1 | -1.04 | inactive |
| CYP4F11 | -1.48 | -1.31 | -1.14 | inactive |
| ANKRD7 | -1.82 | -1.46 | -1.9 | inactive |
| NUDT17 | 0.111 | 0.00249 | 0.187 | inactive |
| LOC440676 (retired record) | -0.743 | -0.673 | -0.394 | inactive |
| LOC391770 (retired record) | 0.851 | 0.565 | 0.0231 | inactive |
| FAM76B | 0.485 | -0.00362 | 0.792 | inactive |
| CYB561A3 | 2.06 | 1.19 | 1.89 | inactive |
| OR7E31P | -0.302 | -0.132 | 0.0473 | inactive |
| PCGF6 | 2.21 | 1.35 | 2.86 | active |
| PLEKHF1 | -1.83 | -1.66 | -1.84 | inactive |
| LOC440591 (retired record) | 0.067 | -0.106 | -0.285 | inactive |
